PubChem BioAssay AID1671190 (National Center for Advancing Translational Sciences (NCATS), 2021)
Values joined by “and” are separate entries in the source; they are usually repeats but may differ in a detail not shown here. Equal entries are not always repeated. Screen size: about 580,000 compounds; about 6,100 (1.1%) were called active. The shares of active, inactive and inconclusive entries below differ from those in the screen. Calls come from the whole dose curve; as a rule, active = well fitted inhibition curve with a large enough effect; inconclusive = small, poorly fitted or top-dose-only effect, or another doubt; inactive = no such curve, though single readings can be large or run the other way. Potencies beside an inconclusive call are fits to weak or partial responses and may not hold up. The source holds several records for some structures; these can differ, active in one and inactive in another.

Protein sequences, listed by entry. Tags and fused reporters are not part of them. Lines headed by an entry give the natural chain unless they say otherwise; changes in a name come on top.
UniProt P18054: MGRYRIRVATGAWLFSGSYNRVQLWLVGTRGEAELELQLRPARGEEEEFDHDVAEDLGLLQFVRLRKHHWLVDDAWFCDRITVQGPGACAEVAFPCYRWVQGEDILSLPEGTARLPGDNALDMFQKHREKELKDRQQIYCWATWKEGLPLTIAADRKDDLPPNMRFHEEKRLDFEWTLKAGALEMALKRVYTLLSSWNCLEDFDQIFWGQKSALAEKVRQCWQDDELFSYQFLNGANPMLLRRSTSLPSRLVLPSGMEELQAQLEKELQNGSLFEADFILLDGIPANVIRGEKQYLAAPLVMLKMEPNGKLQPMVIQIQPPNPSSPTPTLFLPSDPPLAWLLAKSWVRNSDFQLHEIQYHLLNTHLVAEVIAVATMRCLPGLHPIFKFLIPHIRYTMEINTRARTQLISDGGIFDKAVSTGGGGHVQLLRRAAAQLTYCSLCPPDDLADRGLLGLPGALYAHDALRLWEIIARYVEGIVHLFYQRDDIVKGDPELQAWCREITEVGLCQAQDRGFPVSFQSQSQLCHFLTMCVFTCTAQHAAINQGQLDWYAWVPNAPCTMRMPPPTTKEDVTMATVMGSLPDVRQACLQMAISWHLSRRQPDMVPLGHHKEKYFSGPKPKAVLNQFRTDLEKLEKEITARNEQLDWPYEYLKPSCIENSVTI

Each compound was assayed against Polyunsaturated fatty acid lipoxygenase ALOX12 (Homo sapiens) (UniProt P18054) (assay: Primary qHTS assay for inhibitors of human arachidonate 12S-lipoxygenase (ALOX12): Round 2). Conditions: purified 12hLO, xylenol orange hydroperoxide absorbance; activity change, negative = inhibition: at 108 µM (top of the series) unless noted.
How it was run: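 Hydroperoxide product was detected by ferrous iron/xylenol orange as the 573 to 405 nm absorbance ratio. Arachidonic acid at 40 uM (final) was turned over for 30 min at room temperature by 150 nM human 12hLO, pH 7.0 Hepes buffer, after 15 min compound preincubation.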
% is set by controls: 0 for no effect and ±100 for the full control effect; potency is the fitted concentration of half-maximal effect.

| Structure (SMILES) | activity change, negative = inhibition | Potency |
| --- | --- | --- |
| CCOc1ccc(NC(=O)N2CCc3cc(OC)c(OC)cc3C2CNC(=O)c2ccco2)cc1 (centres undefined) | inactive: 25.2% | – |
| O=C(CCC(=O)c1ccc2c(c1)CCC2)NC1CCCC1 | – | inconclusive: 56.2 µM [inhibitor, partial curve, poor fit] |
| CC(Sc1nc2sc3c(c2c(=O)n1-c1ccccc1)CCCC3)C(=O)O (centres undefined) | – | inconclusive: 31.6 µM [inhibitor, single point] |
| CCc1noc(C)c1C(=O)Nc1sc(Cc2ccccc2)cc1C(=O)OC | inactive: 2.46% | – |
| CCn1c(-c2cc(Cl)ccc2OC)n[nH]c1=S | – | inconclusive: 31.6 µM [inhibitor, partial curve, poor fit] |
| Cc1ccccc1CN1CCc2nnc(C(C)NC(=O)c3cc(F)ccc3F)n2CC1 (centres undefined) | inactive: 7.37% | – |
| CN(C)CCC#CC(O)(c1ccccc1)C1CCCCC1 (centres undefined) | – | inconclusive: 100 µM [inhibitor, single point] |
| CCCCC1(C)NC(=O)N(CC(=O)Nc2ccc(S(=O)(=O)N3CCOCC3)cc2)C1=O (centres undefined) | – | inconclusive: 100 µM [inhibitor, single point] |
| Clc1ccc(-c2cnc3cccnn23)cc1 | – | inconclusive: 0.178 µM [inhibitor, full curve, poor fit] |
| Cc1cccc(CNc2ncncc2-c2cccc(NS(C)(=O)=O)c2)c1 | – | inconclusive: 50.1 µM [inhibitor, partial curve, poor fit] |
| Cc1ccc(-n2cnnc2SCC(=O)Nc2ccc(S(=O)(=O)N3CCCCCC3)cc2)c(C)c1 | – | inconclusive: 44.7 µM [inhibitor, partial curve, poor fit] |
| COc1ccc2nc(C)c(C(=O)NC3CCS(=O)(=O)C3)cc2c1 (centres undefined) | inactive: -48.1% | – |
| COC(=O)c1ccc(N2NC(=O)/C(=C/c3ccc(-c4ccc(Cl)c(C(=O)O)c4)o3)C2=O)cc1 | – | inconclusive: 50.1 µM [inhibitor, partial curve, poor fit] |
| COc1ccc(-c2csc3nc(-c4ccccc4OC)oc(=O)c23)cc1 | inactive: -11.4% | – |
| CSc1ccccc1NC(=O)C1CC(c2c(F)cccc2Cl)=NO1 (centres undefined) | – | inconclusive: 39.8 µM [inhibitor, partial curve, poor fit] |
| C/C=C/c1ccc(OC(C)[C@@H](O)c2ccc(O)c(OC)c2)c(OC)c1 (some centres undefined) | inactive: 7.74% | – |
| O=S1(=O)C[C@H](NC2CCCC2)[C@@H](S(=O)(=O)c2ccccc2)C1 | inactive: -2.89% | – |
| O=C(Nc1cccc(F)c1)c1coc(=O)c(Br)c1 | – | inconclusive: 39.8 µM [inhibitor, partial curve, poor fit] |
| CCn1cc([N+](=O)[O-])c(C(=O)N2N=C3/C(=C/c4cccs4)CCCC3C2c2cccs2)n1 (centres undefined) | – | inconclusive: 50.1 µM [inhibitor, partial curve, poor fit] |
| CCC(C)(C)NC(=S)Nc1ccccc1C | – | inconclusive: 89.1 µM [inhibitor, single point] |
| Cc1cc2c(cc1C)-n1nnnc1C(N(C)Cc1ccccc1)C(=O)N2 (centres undefined) | – | inconclusive: 112 µM [inhibitor, single point] |
| O=C(Cc1ccccn1)N1CCC2(CC1)Cc1ccccc1NC2=O | inactive: 65.9% [at 176 µM] | – |

| Structure (SMILES) | activity change, negative = inhibition | Potency |
| --- | --- | --- |
| Cc1cn2cc(C(=O)N(C)CCO)cc(N[C@@H]3CCOc4cccc(C)c43)c2n1 | – | inconclusive: 24.3 µM [inhibitor, partial curve, poor fit] |
| O=C(c1ccccc1)N1CCN(c2ncnc3c(-c4ccccc4)nsc23)CC1 | – | inconclusive: 112 µM [inhibitor, single point] |
| Cc1nc(-c2ccc3c(c2)-c2ccccc2C3)cs1 | – | active: 0.316 µM |
| COc1ccc(CN2Cc3ccccc3OC(c3ccccc3OC)C2)cc1O (centres undefined) | – | inconclusive: 141 µM [inhibitor, single point] |
| Cn1c(/N=C/c2c(O)ccc3ccccc23)nc2ccccc21 | – | inconclusive: 44.7 µM [inhibitor, partial curve, poor fit] |
| CC(C)(C)c1cc(C(=O)NNc2ccc(OC(F)(F)F)cc2)n(Cc2ccccc2)n1 | – | inconclusive: 79.4 µM [inhibitor, single point] |
| N#Cc1ccc(Cl)cc1NC(=O)COC(=O)c1cccc(S(=O)(=O)N2CCOCC2)c1 | – | inconclusive: 79.4 µM [inhibitor, single point] |
| O=C(CSc1nc2ccc(Nc3nc(N4CCOCC4)nc(N4CCOCC4)n3)cc2s1)NCc1ccco1 | – | inconclusive: 50.1 µM [inhibitor, partial curve, poor fit] |
| O=C(CSCc1ccccc1Cl)NNC(=S)Nc1ccccc1 | – | inconclusive: 50.1 µM [inhibitor, partial curve, poor fit] |
| Cn1nc(-c2ccccc2)cc1NC(=O)c1cccs1 | – | inconclusive: 112 µM [inhibitor, partial curve, poor fit] |
| COc1cc(S(=O)(=O)Nc2ccccc2OC)ccc1NC(C)=O | inactive: -2.8% | – |
| COCCn1c(-n2nc(C)cc2C)nc2c1c(=O)n(CCc1ccccc1)c(=O)n2C | inactive: 31.8% | – |
| Cc1ccccc1N1CCN(C2CCCN(C(=O)c3ccccn3)C2)CC1 (centres undefined) | – | inconclusive: 79.4 µM [inhibitor, partial curve, poor fit] |
| CC1=C/C(=N/NC(=S)NC2CCCCC2)CC1 | – | inconclusive: 44.7 µM [inhibitor, partial curve, poor fit] |
| CC(C)c1ccc(S(=O)(=O)N2CCN(C(=S)NCc3ccco3)CC2)cc1 | – | inconclusive: 50.1 µM [inhibitor, partial curve, poor fit] |
| Cc1cc(OCC(O)CN2CCc3ccccc3C2)ccc1Cl (centres undefined) | – | inconclusive: 100 µM [inhibitor, single point] |
| Cc1coc2c1C(=O)C(=O)c1c-2ccc2c1CCCC2(C)C | – | active: 24.3 µM and inconclusive: 70.8 µM [inhibitor, single point] and inconclusive: 39.8 µM [inhibitor, partial curve, poor fit] |
| O=C(Nc1ccc(Cl)cc1C(F)(F)F)c1ccc(-c2ccccc2)cc1 | inactive: 8.61% | – |
| CN1OC[C@@H]2CN(Cc3ccccc3)[C@H](c3cccc(-c4ccccc4)c3)C[C@@H]21 | – | inconclusive: 39.8 µM [inhibitor, single point] |
| CCc1ccc(C(=O)COC(=O)c2cccc(Cl)c2Cl)cc1 | – | inconclusive: 50.1 µM [inhibitor, single point] |
| O=C(Nc1ccc2c(c1)OCCO2)c1oc2ccccc2c1NC(=O)C1CC1 | inactive: -4.58% | – |
| Cc1ccc(CC2(OCCN(C)C)CCC(C(C)(C)C)CC2)cc1 (centres undefined) | – | inconclusive: 56.2 µM [inhibitor, partial curve, poor fit] |

| Structure (SMILES) | activity change, negative = inhibition | Potency |
| --- | --- | --- |
| Cc1ccc2nsnc2c1NS(=O)(=O)c1c(C)ccc2nsnc12 | inconclusive: -32.5% [inhibitor] | – |
| O=c1c(-c2ccccc2)nc2cnc(Oc3ccccc3)nc2n1C[C@H]1CCCO1 | – | inconclusive: 79.4 µM [inhibitor, single point] |
| CN1C(=O)C(CC(=O)NCCc2c[nH]c3ccccc23)=C2CCCCC21 (centres undefined) | inactive: 19% | – |
| O=[N+]([O-])c1ccc(CN2CCN(Cc3c[nH]c4ccccc34)CC2)cc1 | – | inconclusive: 14.1 µM [inhibitor, full curve] |
| COc1ccccc1OC(C)C(=O)c1ccc(Cl)cc1 (centres undefined) | inactive: -1.16% | – |
| CCN1C(=O)[C@H]2[C@@H](c3ccc(C(F)(F)F)cc3)N[C@]3(CCCN(Cc4ccc(Br)cc4)C3=O)[C@H]2C1=O | – | inconclusive: 35.5 µM [inhibitor, partial curve] |
| CN(CCC(=O)c1cccs1)CCC(=O)c1cccs1 | – | inconclusive: 89.1 µM [inhibitor, single point] |
| O=C(Nc1ccc(Oc2ccccc2)cc1)c1ccc[n+]([O-])c1 | – | inconclusive: 112 µM [inhibitor, single point] |
| COc1ccc(CNC(=O)C[C@H]2C[C@H](C(=O)N3CCOCC3)[C@@]3(CCC4CCCC4)c4[nH]c5ccc(Cl)cc5c4CCN3C2=O)cc1OC | – | inconclusive: 89.1 µM [inhibitor, single point] |
| CC1(C(=O)NS(=O)(=O)c2ccc(C#N)cc2)CCN1C(=O)c1cccc2ccccc12 (centres undefined) | – | inconclusive: 35.5 µM [inhibitor, single point] |
| COc1ccccc1CCn1cnc(-c2cccc(Br)c2)c1C(C)C | inactive: -21.1% | – |
| COc1ccc(S(=O)(=O)Nc2c(NC3CCCC3)c3ccccc3oc2=O)cc1OC | inactive: -2.6% | – |
| Cc1cccc(C(=O)NCc2nnc(SCC(=O)NC3CCCCC3)n2-c2ccccc2)c1 | – | inconclusive: 35.5 µM [inhibitor, partial curve, poor fit] |
| O=C(Nc1ccc(Cl)cc1)N1CCC2(C1)C(=O)N(CCc1ccccc1)c1ccccc12 (centres undefined) | – | inactive |
| Clc1ccc(-c2csc(=Nc3ccccc3)n2Cc2ccc3c(c2)OCO3)cc1 | – | inconclusive: 0.631 µM [inhibitor, full curve, poor fit] |
| CCCCN1CCc2[nH]c(=S)[nH]c(=O)c2C1 | – | inconclusive: 2 µM [inhibitor, full curve, poor fit] |
| Cc1nn(-c2ccccc2)c(N2CCCC2)c1/C=N/NC(=S)Nc1ccc(F)cc1 | – | inconclusive: 14.1 µM [inhibitor, full curve] |
| Cn1c(=O)c2c(ncn2CCC(=O)NC2CCCCC2)n(C)c1=O | inactive: 25.5% | – |
| O=C(Oc1ccc2ccc(O)cc2c1)C1CCCCC1 | – | inconclusive: 112 µM [inhibitor, single point] |
| CN(C(=O)COC(=O)c1csc(NCc2ccccc2)n1)c1ccccc1 | – | inconclusive: 7.08 µM [inhibitor, full curve, poor fit] |

By substructure, the compounds so far with a nitro group on carbon (two)

| Structure (SMILES) | activity change, negative = inhibition | Potency |
| --- | --- | --- |
| CCn1cc([N+](=O)[O-])c(C(=O)N2N=C3/C(=C/c4cccs4)CCCC3C2c2cccs2)n1 (centres undefined) | – | inconclusive: 50.1 µM [inhibitor, partial curve, poor fit] |
| O=[N+]([O-])c1ccc(CN2CCN(Cc3c[nH]c4ccccc34)CC2)cc1 | – | inconclusive: 14.1 µM [inhibitor, full curve] |
